PubChem BioAssay AID1671195 – Yale University – 2021
Shown is an unselected part of about 22,000 reagents tested. About 1,510 of all reagents (6.9%) count as active. 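Active includes knockdowns raising or lowering LDL uptake; positive z-scores mean more uptake, negative mean less.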 Entries without a mark were called inactive. No sequences are given here.

Screen: 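Knockdowns that increase or decrease uptake of fluorescent LDL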 (primary screen)
System: human Huh7 hepatoma cells
Reagent: siRNA pool against human genes, 18 nM
Time to read-out: about 2 to 2.5 days of knockdown, then 8 h LDL uptake
Challenge: DiI-labelled LDL at 30 µg/ml for 8 h, in lipoprotein-deficient serum medium
Read-out: 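Per-cell DiI-LDL intensity by automated imaging; well means scaled to the plate median and given as a robust z-score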
Scale: robust z-score: higher = more LDL uptake after knockdown
Active means: 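a gene counts as active if at least two replicate z-scores exceed ±2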

FRZB (frizzled related protein)
- robust z-score, replicate 1: -0.779
- robust z-score, replicate 2: -1.93
- robust z-score, replicate 3: -1.22

SMCO1 (single-pass membrane protein with coiled-coil domains 1)
- robust z-score, replicate 1: -0.517
- robust z-score, replicate 2: -0.536
- robust z-score, replicate 3: -0.294

PEX6 (peroxisomal biogenesis factor 6)
- robust z-score, replicate 1: -0.886
- robust z-score, replicate 2: -0.171
- robust z-score, replicate 3: -0.275

PSMD9 (proteasome 26S subunit, non-ATPase 9)
- robust z-score, replicate 1: 0.661
- robust z-score, replicate 2: 0.63
- robust z-score, replicate 3: 0.595

LPA (lipoprotein(a))
- robust z-score, replicate 1: 1.67
- robust z-score, replicate 2: 1.86
- robust z-score, replicate 3: 2.21

CEP112 (centrosomal protein 112)
- robust z-score, replicate 1: -0.161
- robust z-score, replicate 2: -0.0561
- robust z-score, replicate 3: -0.573

OR52J3 (olfactory receptor family 52 subfamily J member 3)
- robust z-score, replicate 1: 0.103
- robust z-score, replicate 2: -0.822
- robust z-score, replicate 3: -0.255

HTR7 (5-hydroxytryptamine receptor 7)
- robust z-score, replicate 1: -0.787
- robust z-score, replicate 2: -0.721
- robust z-score, replicate 3: -0.979

SEPHS1P4 (selenophosphate synthetase 1 pseudogene 4)
- robust z-score, replicate 1: -0.418
- robust z-score, replicate 2: -0.434
- robust z-score, replicate 3: -0.724

ALPK1 (alpha kinase 1)
- robust z-score, replicate 1: -1.65
- robust z-score, replicate 2: -1.28
- robust z-score, replicate 3: -1.49

Laid out differently: results already given
{"Gene":"CEP112 (centrosomal protein 112)","robust z-score, replicate 1":-0.161,"robust z-score, replicate 2":-0.0561,"robust z-score, replicate 3":-0.573}
{"Gene":"OR52J3 (olfactory receptor family 52 subfamily J member 3)","robust z-score, replicate 1":0.103,"robust z-score, replicate 2":-0.822,"robust z-score, replicate 3":-0.255}
{"Gene":"HTR7 (5-hydroxytryptamine receptor 7)","robust z-score, replicate 1":-0.787,"robust z-score, replicate 2":-0.721,"robust z-score, replicate 3":-0.979}

Next records:
LOC442065 (retired record)
- robust z-score, replicate 1: -2.26 (active)
- robust z-score, replicate 2: -2.54
- robust z-score, replicate 3: -2.38

LOC440901 (retired record)
- robust z-score, replicate 1: -0.82
- robust z-score, replicate 2: -1.15
- robust z-score, replicate 3: -0.977

GPR151 (G protein-coupled receptor 151)
- robust z-score, replicate 1: 1.17
- robust z-score, replicate 2: 0.1
- robust z-score, replicate 3: 0.941

AGGF1 (angiogenic factor with G-patch and FHA domains 1)
- robust z-score, replicate 1: -0.343
- robust z-score, replicate 2: -0.442
- robust z-score, replicate 3: 0.993

FTCD (formimidoyltransferase cyclodeaminase)
- robust z-score, replicate 1: -2.52
- robust z-score, replicate 2: -1.01
- robust z-score, replicate 3: 2.85

C16orf78 (chromosome 16 open reading frame 78)
- robust z-score, replicate 1: -1.93
- robust z-score, replicate 2: -0.554
- robust z-score, replicate 3: -0.862

LINC00602 (long independently transcribed non-coding RNA 602)
- robust z-score, replicate 1: -1.76
- robust z-score, replicate 2: -1.04
- robust z-score, replicate 3: -1.04

LZIC (leucine zipper and CTNNBIP1 domain containing)
- robust z-score, replicate 1: -0.48
- robust z-score, replicate 2: -0.844
- robust z-score, replicate 3: -1.1

PIF1 (PIF1 5'-to-3' DNA helicase)
- robust z-score, replicate 1: -0.949
- robust z-score, replicate 2: -1.51
- robust z-score, replicate 3: -1.55

RAPGEFL1 (Rap guanine nucleotide exchange factor like 1)
- robust z-score, replicate 1: -0.465
- robust z-score, replicate 2: -0.0458
- robust z-score, replicate 3: 0.0419

C9orf72 (C9orf72-SMCR8 complex subunit)
- robust z-score, replicate 1: 0.113
- robust z-score, replicate 2: 0.227
- robust z-score, replicate 3: 0.548

EPX (eosinophil peroxidase)
- robust z-score, replicate 1: -0.309
- robust z-score, replicate 2: -0.435
- robust z-score, replicate 3: -0.553

UGT8 (UDP glycosyltransferase 8)
- robust z-score, replicate 1: 0.892
- robust z-score, replicate 2: 0.778
- robust z-score, replicate 3: 0.83

SEPSECS
- robust z-score, replicate 1: -1.29
- robust z-score, replicate 2: -0.629
- robust z-score, replicate 3: -1.53

DHX37 (DEAH-box helicase 37)
- robust z-score, replicate 1: -0.833
- robust z-score, replicate 2: -0.0552
- robust z-score, replicate 3: -0.541

KRTAP8-1 (keratin associated protein 8-1)
- robust z-score, replicate 1: -0.0491
- robust z-score, replicate 2: -0.0223
- robust z-score, replicate 3: 0.384

DICER1 (dicer 1, ribonuclease III)
- robust z-score, replicate 1: 1.69
- robust z-score, replicate 2: 0.595
- robust z-score, replicate 3: 1.06

ARMH3 (armadillo like helical domain containing 3)
- robust z-score, replicate 1: -0.00512
- robust z-score, replicate 2: 0.48
- robust z-score, replicate 3: 0.445

INSRR (insulin receptor related receptor)
- robust z-score, replicate 1: -0.313
- robust z-score, replicate 2: 0.384
- robust z-score, replicate 3: -0.234

RPS26P17 (ribosomal protein S26 pseudogene 17)
- robust z-score, replicate 1: 1.09
- robust z-score, replicate 2: 1.13
- robust z-score, replicate 3: 0.612
